The supplement of paper PMC4604168 (melanoma cell lines)
The other results are listed elsewhere or left out. Single values are uncertain, as repeats are few or missing.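 Imaging used 1,536-well plates; nuclei positive for cleaved PARP by antibody were divided by total DNA-stained nuclei to yield the apoptosis fraction. Doses for screening kept most cells viable, and cell lines differ markedly in resting and induced cleaved-PARP levels.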

Legend:
Test in all cases: cleaved PARP positive nuclei fraction relative to DMSO control; melanoma cells; higher = more apoptosis
Settings in all cases: library dose: low library concentration; 72 h
MZ2-MEL = tested on: MZ2-MEL
MeWo = tested on: MeWo
RPMI7951 = tested on: RPMI7951
RVH-421 = tested on: RVH-421
SkMel28 = tested on: SkMel28
SkMel2 = tested on: SkMel2
SkMel30 = tested on: SkMel30
SkMel5 = tested on: SkMel5
UACC257 = tested on: UACC257
UACC62 = tested on: UACC62

SMILES | cleaved PARP positive nuclei fraction (MZ2-MEL) | cleaved PARP positive nuclei fraction (MeWo) | cleaved PARP positive nuclei fraction (RPMI7951) | cleaved PARP positive nuclei fraction (RVH-421) | cleaved PARP positive nuclei fraction (SkMel28) | cleaved PARP positive nuclei fraction (SkMel2) | cleaved PARP positive nuclei fraction (SkMel30) | cleaved PARP positive nuclei fraction (SkMel5) | cleaved PARP positive nuclei fraction (UACC257) | cleaved PARP positive nuclei fraction (UACC62)
Cn1cc(C2=C(c3cn(C4CCN(Cc5ccccn5)CC4)c4ccccc34)C(=O)NC2=O)c2ccccc21 [Enzastaurin] + O=C(Oc1ccc([N+](=O)[O-])cc1)N1CCC(C(O)(c2ccc3c(c2)OCO3)c2ccc3c(c2)OCO3)CC1 [JZL184] (first compound 0.8 µM, partner dose 1 µM) | 106% | 72.3% | 106% | 61.6% | 158% | 88% | 48% | 168% | 56.8% | 65.4%
N.N.[Cl][Pt][Cl] [cisplatin] + COC(=O)c1sccc1S(=O)(=O)Nc1ccc(Nc2ccccc2)cc1OC [GSK0660] (first compound 1.6 µM, partner dose 1 µM) | 89.4% | 79.1% | 139% | 63.8% | 89.6% | 83.1% | 37.3% | 149% | 239% | 98.5%
N.N.[Cl][Pt][Cl] [cisplatin] + COc1cc(N2CCC(N3CCN(C)CC3)CC2)ccc1Nc1ncc(Cl)c(Nc2ccccc2S(=O)(=O)C(C)C)n1 [NVP-TAE684] (first compound 1.6 µM, partner dose 0.08 µM) | 212% | 211% | 74% | 102% | 144% | 49.7% | 89.7% | 77.5% | 279% | 76.7%
CC(=O)c1c(C)c2cnc(Nc3ccc(N4CCNCC4)cn3)nc2n(C2CCCC2)c1=O [palbociclib] + O=C(Oc1ccc([N+](=O)[O-])cc1)N1CCC(C(O)(c2ccc3c(c2)OCO3)c2ccc3c(c2)OCO3)CC1 [JZL184] (first compound 0.04 µM, partner dose 1 µM) | 47% | 42.7% | 44.9% | 108% | 151% | 74.7% | 425% | 98.8% | 150% | 162%
CCCS(=O)(=O)Nc1ccc(F)c(C(=O)c2c[nH]c3ncc(Cl)cc23)c1F + O=C(Oc1ccc([N+](=O)[O-])cc1)N1CCC(C(O)(c2ccc3c(c2)OCO3)c2ccc3c(c2)OCO3)CC1 [JZL184] (first compound 0.08 µM, partner dose 1 µM) | 57.9% | 43.7% | 27.5% | 120% | 246% | 30.2% | 41.3% | 69.5% | 140% | 219%
CN(c1ncccc1CNc1nc(Nc2ccc3c(c2)CC(=O)N3)ncc1C(F)(F)F)S(C)(=O)=O + O=C(Oc1ccc([N+](=O)[O-])cc1)N1CCC(C(O)(c2ccc3c(c2)OCO3)c2ccc3c(c2)OCO3)CC1 [JZL184] (first compound 0.08 µM, partner dose 1 µM) | 125% | 87.2% | 215% | 192% | 338% | 76.1% | 119% | 210% | 824% | 141%
Cn1cc(C2=C(c3cn(C4CCN(Cc5ccccn5)CC4)c4ccccc34)C(=O)NC2=O)c2ccccc21 [Enzastaurin] + NC(=O)c1ccc(N(C(N)=O)c2c(F)cccc2F)nc1-c1ccc(F)cc1F [VX702] (first compound 0.8 µM, partner dose 0.4 µM) | 69.3% | 108% | 68.2% | 55.5% | 206% | 58.8% | 131% |  |  | 54.7%
Cn1cc(C2=C(c3cn(C4CCN(Cc5ccccn5)CC4)c4ccccc34)C(=O)NC2=O)c2ccccc21 [Enzastaurin] + Cn1cc(/C=C2\C(=O)Nc3cccnc32)c2ccccc21 [GW441756] (first compound 0.8 µM, partner dose 0.4 µM) | 77.7% | 40.3% | 66.6% | 38% | 187% | 127% | 88.9% | 78.5% | 150% | 169%
Nc1ncn([C@H]2C[C@H](O)[C@@H](CO)O2)c(=O)n1 [decitabine] + C/C(O)=C(\C#N)C(=O)Nc1cc(Br)ccc1Br [LFM-A13] (first compound 0.1 µM, partner dose 2 µM) | 151% | 155% | 183% | 40.9% | 181% | 116% | 98.5% | 39.7% | 184% | 117%
Nc1ncn([C@H]2C[C@H](O)[C@@H](CO)O2)c(=O)n1 [decitabine] + Cc1cc(SCc2sc(-c3ccc(C(F)(F)F)c(F)c3)nc2C)ccc1OCC(=O)O [GW0742] (first compound 0.1 µM, partner dose 2 µM) | 95.2% | 55.6% | 85.6% | 85.4% | 184% | 136% | 224% | 65.8% | 105% | 87.5%
CCCCCCCCc1ccc(CCC(N)(CO)CO)cc1 [fingolimod] + C[As](C)SC[C@H](NC(=O)CC[C@H](N)C(=O)O)C(=O)NCC(=O)O [Darinaparsin] (first compound 2 µM, partner dose 0.4 µM) | 107% | 132% | 118% | 70% | 94.8% | 70.1% | 134% |  |  | 129%
C[C@]1(O)C[C@@H](c2nc(-c3ccc4ccc(-c5ccccc5)nc4c3)c3c(N)nccn32)C1 + C[As](C)SC[C@H](NC(=O)CC[C@H](N)C(=O)O)C(=O)NCC(=O)O [Darinaparsin] (first compound 0.4 µM, partner dose 0.4 µM) | 104% | 121% | 93.7% | 137% | 80.7% | 160% | 253% |  |  | 42.2%
NC1(c2ccc(-c3nc4ccn5c(=O)[nH]nc5c4cc3-c3ccccc3)cc2)CCC1 + N.N.[Cl][Pt][Cl] [cisplatin] (first compound 0.4 µM, partner dose 1.6 µM) | 172% | 220% | 105% | 332% | 227% | 128% | 74.8% |  |  | 255%
CCCCCCCCCCCCCCCCCCOP(=O)([O-])OC1CC[N+](C)(C)CC1 [Perifosine] + C/C(O)=C(\C#N)C(=O)Nc1cc(Br)ccc1Br [LFM-A13] (first compound 0.4 µM, partner dose 2 µM) | 127% | 87% | 104% | 175% | 200% | 90.3% | 116% | 86.6% | 214% | 70.8%
C=CCNC1=C2C[C@@H](C)C[C@H](OC)[C@H](O)[C@@H](C)/C=C(\C)[C@H](OC(N)=O)[C@@H](OC)/C=C\C=C(/C)C(=O)NC(=CC1=O)C2=O [Tanespimycin] + C[As](C)SC[C@H](NC(=O)CC[C@H](N)C(=O)O)C(=O)NCC(=O)O [Darinaparsin] (first compound 0.002 µM, partner dose 0.4 µM) | 154% | 129% | 112% | 161% | 76.7% | 134% | 60.5% |  |  | 86.5%
O=C(Nc1cc(C(F)(F)F)cc(C(F)(F)F)c1)c1cc(Cl)ccc1O + C/C(O)=C(\C#N)C(=O)Nc1cc(Br)ccc1Br [LFM-A13] (first compound 0.016 µM, partner dose 2 µM) | 137% | 110% | 63.7% | 58.2% | 90.4% | 113% | 77.7% | 62.2% | 215% | 135%
Cn1cc(C2=C(c3cn(C4CCN(Cc5ccccn5)CC4)c4ccccc34)C(=O)NC2=O)c2ccccc21 [Enzastaurin] + CC(C)C[C@H](NC(=O)[C@H](Cc1ccccc1)NC(=O)c1cnccn1)B(O)O [Bortezomib] (first compound 0.8 µM, partner dose 0.001 µM) | 50.8% | 82.7% | 97.9% | 66.6% | 52.9% | 94.7% | 15.4% |  |  | 31.8%
Nc1ccn([C@@H]2O[C@H](CO)[C@@H](O)C2(F)F)c(=O)n1 [gemcitabine] + O=C(Oc1ccc([N+](=O)[O-])cc1)N1CCC(C(O)(c2ccc3c(c2)OCO3)c2ccc3c(c2)OCO3)CC1 [JZL184] (first compound 0.0004 µM, partner dose 1 µM) | 152% | 44.1% | 36.2% | 32.6% | 135% | 86.9% | 83.5% | 89.7% | 84.2% | 35.8%
O=C(Nc1cc(C(F)(F)F)cc(C(F)(F)F)c1)c1cc(Cl)ccc1O + C[As](C)SC[C@H](NC(=O)CC[C@H](N)C(=O)O)C(=O)NCC(=O)O [Darinaparsin] (first compound 0.016 µM, partner dose 0.4 µM) | 124% | 102% | 173% | 139% | 37.6% | 49.2% | 31.4% |  |  | 133%
CCCCCCCCCCCCCCCCCCOP(=O)([O-])OC1CC[N+](C)(C)CC1 [Perifosine] + C[As](C)SC[C@H](NC(=O)CC[C@H](N)C(=O)O)C(=O)NCC(=O)O [Darinaparsin] (first compound 0.4 µM, partner dose 0.4 µM) | 28.7% | 138% | 57.3% | 151% | 30.9% | 72.8% | 78.4% |  |  | 97.9%
NC(=O)c1ccc(N(C(N)=O)c2c(F)cccc2F)nc1-c1ccc(F)cc1F + C/C(O)=C(\C#N)C(=O)Nc1cc(Br)ccc1Br [LFM-A13] (first compound 0.4 µM, partner dose 2 µM) | 52.8% | 76.6% | 80.2% | 71.8% | 168% | 101% | 120% | 79.5% | 65.1% | 138%
N.N.[Cl][Pt][Cl] [cisplatin] + C=CCNC1=C2C[C@@H](C)C[C@H](OC)[C@H](O)[C@@H](C)/C=C(\C)[C@H](OC(N)=O)[C@@H](OC)/C=C\C=C(/C)C(=O)NC(=CC1=O)C2=O [Tanespimycin] (first compound 1.6 µM, partner dose 0.002 µM) | 130% | 85.6% | 88.2% | 136% | 110% | 78.3% | 26.1% |  |  | 65.6%

Individual results from the entries so far.
In cleaved PARP positive nuclei fraction (SkMel28), CCCS(=O)(=O)Nc1ccc(F)c(C(=O)c2c[nH]c3ncc(Cl)cc23)c1F + O=C(Oc1ccc([N+](=O)[O-])cc1)N1CCC(C(O)(c2ccc3c(c2)OCO3)c2ccc3c(c2)OCO3)CC1 [JZL184] (first compound 0.08 µM, partner dose 1 µM) is listed with 246%
In cleaved PARP positive nuclei fraction (UACC257), CC(=O)c1c(C)c2cnc(Nc3ccc(N4CCNCC4)cn3)nc2n(C2CCCC2)c1=O [palbociclib] + O=C(Oc1ccc([N+](=O)[O-])cc1)N1CCC(C(O)(c2ccc3c(c2)OCO3)c2ccc3c(c2)OCO3)CC1 [JZL184] (first compound 0.04 µM, partner dose 1 µM) is listed with 150%
